Results as given in paper PMC2821923, “Visualizing Interactions along the Escherichia coli Twin-Arginine Translocation Pathway Using Protein Fragment Complementation” (PLoS ONE, 2010).
Results are given in words; binding and its absence hold for the method and conditions named. In cells and extracts the contact can be indirect. A result given as binding can be weak or reduced; the word gives no strength. Tags and fused reporters may be left off the sequences shown.

Molecular target: T1, TatC fused to a YFP fragment (TatC-Y1; TatC-Y2) (E. coli) (UniProt P69423)
T1 sequence: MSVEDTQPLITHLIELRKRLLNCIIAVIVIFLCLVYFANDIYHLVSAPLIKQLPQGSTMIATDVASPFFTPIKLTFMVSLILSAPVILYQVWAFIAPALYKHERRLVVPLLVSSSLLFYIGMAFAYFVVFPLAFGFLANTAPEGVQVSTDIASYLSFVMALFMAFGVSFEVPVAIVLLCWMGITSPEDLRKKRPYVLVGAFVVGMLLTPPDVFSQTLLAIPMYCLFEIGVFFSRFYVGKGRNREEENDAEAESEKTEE
Assay: co-sedimentation; soluble and membrane fractions (top of the 70% sucrose layer) of TG1 ΔtatABCE cells expressing ssDmsA-Y1 alone or with TatC-Y2; anti-FLAG Western blot

Substance: ssDmsA-Y1 (DmsA signal peptide fused to the N-terminal YFP fragment) (E. coli) (domain or fragment)
- binding: binds
